# Structures were worked out from names or drawings and are uncertain.
# Chains of the proteins cited; added tags and fusions are not shown.
# UniProt P46663, whole entry: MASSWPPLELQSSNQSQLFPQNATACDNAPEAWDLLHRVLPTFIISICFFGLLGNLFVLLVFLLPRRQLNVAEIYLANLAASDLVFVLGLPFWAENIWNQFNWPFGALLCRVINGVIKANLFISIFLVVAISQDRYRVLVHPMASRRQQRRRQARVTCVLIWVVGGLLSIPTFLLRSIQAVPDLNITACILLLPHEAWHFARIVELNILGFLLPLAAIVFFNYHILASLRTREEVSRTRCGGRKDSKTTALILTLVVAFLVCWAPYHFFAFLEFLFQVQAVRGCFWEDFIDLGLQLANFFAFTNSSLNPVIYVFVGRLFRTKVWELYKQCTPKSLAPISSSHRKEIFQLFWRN
# Biological target: BKB1 receptors (Homo sapiens, UniProt P46663)
# Test: Calcium Mobilization Assay (FLIPR), IMR-90 cells, BKB1
# Details: IL-1 induced IMR-90 cells, agonist desArg10-kallidin (DAKD)
# Method: Calcium Mobilization Assay (FLIPR)—Human (IMR-90) lung fibroblast cells expressing native BKB1 receptors were harvested by trypsinization and seeded into black wall/clear bottom 96-well plates (Costar 3904; Corning Life Sciences, Acton, Mass.) at approximately 13,000 cells/well. After 1 day incubation, cells were treated with human IL-1 (0.35 ng/ml) in 10% FBS/MEM for 2 h to up-regulate BKB1 receptors. Induced cells were loaded with fluorescent calcium indicator by incubation with 2.3 µM Fluo-4/acetoxymethyl ester (Invitrogen) at 37° C. for 1.5 h in the presence of an anion transport inhibitor (2.5 mM probenecid in 1% FBS/MEM). Extracellular dye was removed by washing with assay buffer (2.5 mM probenecid, 0.1% BSA in 20 mM HEPES/HBSS without bicarbonate or phenol red, pH 7.5) and cell plates were kept in the dark until used. Test compounds were assayed at eight concentrations in triplicate. Addition of test compounds to the cell plate and incubation for 5 min at 35° C., followed by the addition of 2 to 8 nM final BKB1 agonist desArg^10-kallidin (DAKD, 3×EC50) was carried out in the fluorimetric imaging plate reader (FLIPR; Molecular Devices) while continuously monitoring calcium-dependent fluorescence. […]
compound,measurement,value
COc1ccccc1CN(C(=O)Cc1ccc(F)cc1F)C(C(=O)NCC1CCCO1)c1ccc(C)cc1 (stereo not shown),IC50,1400 nM
